# Taken from: PubChem BioAssay AID652243 (Drosophila RNAi Screening Center, 2013)
# Purpose: 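Knock-downs that decrease or increase androgen receptor reporter signal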 (primary screen)
# Cell system: Drosophila S2R+ cells
# Knock-down reagent: long dsRNA against Drosophila genes
# Timing: 72 h (48 h, then 24 h hormone)
# Conditions: synthetic androgen R1881 at 10 nM for 24 h
# Read-out: 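Per-well raw luminescence of the androgen-driven firefly reporter and of the Renilla control, two replicates each, without normalisation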
# Reading the numbers: firefly reporter light: higher = more light from androgen-responsive reporter; Renilla control light: higher = more constitutive control signal (cell number, transfection)
# Hit rule: 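Hit when the log firefly-to-Renilla ratio dropped or increased by a fixed fold versus the mean of GFP or LacZ controls across duplicate plates; lowering cut given as 1.5 and as 3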
# Calls: active = hit: reporter lowered or raised; inactive = no hit
# In all, the deposit lists about 24,000 reagents; below is an unselected part of those that have a named target and a result. In the full data, 246 (1%) got an active call. 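Plates not normalised; calls are printed but the firefly/Renilla ratio behind them is not deposited; fold cut for lowering reported inconsistently.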 Raw values vary from plate to plate and are shown uncorrected. Not given: the amount of reagent.
gene knocked down,dsRNA,"firefly reporter light, replicate 1","firefly reporter light, replicate 2","Renilla control light, replicate 1","Renilla control light, replicate 2",Outcome
SRPK (SR Protein Kinase),DRSC07090,1.11e6,9.20e5,1.94e6,2.09e6,inactive
SRPK (SR Protein Kinase),DRSC28162,4.84e5,6.76e5,1.10e6,1.23e6,inactive
SRPK (SR Protein Kinase),DRSC36776,,,,,inactive
Nmdar1 (NMDA receptor 1),DRSC12071,2.42e5,2.35e5,4.94e5,4.24e5,inactive
Nmdar1 (NMDA receptor 1),DRSC12356,1.40e5,1.39e5,3.18e6,2.51e6,inactive
Nmdar1 (NMDA receptor 1),DRSC24657,5.38e5,3.73e5,4.29e5,4.96e5,inactive
CG10591,DRSC09748,5.94e5,6.00e5,1.78e6,2.02e6,inactive
CG10591,DRSC27468,4.15e5,4.26e5,6.54e5,7.41e5,inactive
CG31650,DRSC03140,4.47e5,6.10e5,2.11e6,2.01e6,inactive
CG31650,DRSC28972,4.72e5,4.57e5,1.24e6,1.17e6,inactive
Pi4KIIIalpha (Phosphatidylinositol 4-kinase III alpha),DRSC18655,2.84e5,2.69e5,3.18e6,3.02e6,inactive
Pi4KIIIalpha (Phosphatidylinositol 4-kinase III alpha),DRSC36969,,,,,inactive
Pi4KIIIalpha (Phosphatidylinositol 4-kinase III alpha),DRSC36970,,,,,inactive
sktl (skittles),DRSC04715,6.53e5,4.60e5,1.61e6,1.66e6,inactive
sktl (skittles),DRSC36718,,,,,inactive
sktl (skittles),DRSC36719,,,,,inactive
HisCl1 (Histamine-gated chloride channel subunit 1),DRSC14945,73821,1.11e5,5.51e5,4.92e5,inactive
Taf4 (TBP-associated factor 4),DRSC11297,15530,10399,1.15e5,1.27e5,inactive
Taf4 (TBP-associated factor 4),DRSC25921,1.78e5,2.19e5,5.60e5,4.72e5,inactive
CG11110,DRSC06037,99192,1.16e5,1.06e6,1.21e6,inactive
CG11110,DRSC27355,2.69e5,2.30e5,6.37e5,8.93e5,inactive
LSm1 (Like Sm 1),DRSC04458,5.11e5,3.89e5,3.45e6,2.37e6,inactive
CG14983,DRSC08441,1.29e5,1.03e5,1.61e6,1.82e6,inactive
CG14983,DRSC26428,2.35e5,2.63e5,5.88e5,6.46e5,inactive
CG8160,DRSC07086,3.16e5,3.65e5,2.52e6,2.46e6,inactive
CG8160,DRSC21434,6.24e5,7.08e5,2.97e6,2.14e6,inactive
CG8160,DRSC24130,5.27e5,6.13e5,5.99e5,7.31e5,inactive
Edc3 (Enhancer of decapping 3),DRSC10620,47135,37054,3.05e5,2.66e5,inactive
Edc3 (Enhancer of decapping 3),DRSC23994,1.15e6,1.10e6,1.26e6,1.30e6,inactive
CG3735,DRSC04411,4.75e5,5.27e5,1.18e6,1.13e6,inactive
CG15543,DRSC15081,2.07e5,1.73e5,1.74e6,2.13e6,inactive
scra (scraps),DRSC07679,8.15e5,6.62e5,1.78e6,2.27e6,inactive
Blos2,DRSC10147,1.26e5,1.51e5,1.49e6,1.43e6,inactive
Blos2,DRSC25642,7.40e5,9.22e5,7.83e5,8.26e5,inactive
ste24a (prenyl protease type I),DRSC07314,7.99e5,9.24e5,1.56e6,1.18e6,inactive
ste24a (prenyl protease type I),DRSC26491,1.20e5,73940,2.03e5,1.65e5,inactive
CG2747,DRSC15450,80438,1.16e5,1.66e6,1.77e6,inactive
brp (bruchpilot),DRSC06245,3.91e5,2.50e5,2.39e6,2.03e6,inactive
brp (bruchpilot),DRSC06246,2.97e5,2.41e5,1.59e6,1.48e6,inactive
brp (bruchpilot),DRSC06801,2.15e5,1.96e5,1.61e6,1.43e6,inactive
brp (bruchpilot),DRSC21893,5.11e5,5.46e5,1.58e6,8.88e5,inactive
brp (bruchpilot),DRSC29170,8.00e5,7.21e5,1.45e6,1.54e6,inactive
brp (bruchpilot),DRSC29721,3.49e5,3.87e5,1.42e6,1.41e6,inactive

An excerpt of the results above, as a working copy:
gene knocked down,dsRNA,"firefly reporter light, replicate 1","firefly reporter light, replicate 2","Renilla control light, replicate 1","Renilla control light, replicate 2",Outcome
HisCl1 (Histamine-gated chloride channel subunit 1),DRSC14945,73821,1.11e5,5.51e5,4.92e5,inactive
Taf4 (TBP-associated factor 4),DRSC11297,15530,10399,1.15e5,1.27e5,inactive
Taf4 (TBP-associated factor 4),DRSC25921,1.78e5,2.19e5,5.60e5,4.72e5,inactive
CG11110,DRSC06037,99192,1.16e5,1.06e6,1.21e6,inactive
CG11110,DRSC27355,2.69e5,2.30e5,6.37e5,8.93e5,inactive
LSm1 (Like Sm 1),DRSC04458,5.11e5,3.89e5,3.45e6,2.37e6,inactive
